These are yes or no findings as the source states them, for the method shown. Binding seen in cells or lysates may run through a third protein. Some entries that bind do so weakly or less than the wild type.
Biological target: HRD1 (human (endogenous in MCF7)) (UniProt Q86TM6)
Assay: co-IP; endogenous proteins; MCF-7 cells pretreated with MG132 (10 μmol/l) for 6 h; IP with HRD1 or S100A8 antibodies, then immunoblotting; IgG as negative control

Protein sequences, listed by entry. Tags and fused reporters are not part of them.
UniProt Q86TM6: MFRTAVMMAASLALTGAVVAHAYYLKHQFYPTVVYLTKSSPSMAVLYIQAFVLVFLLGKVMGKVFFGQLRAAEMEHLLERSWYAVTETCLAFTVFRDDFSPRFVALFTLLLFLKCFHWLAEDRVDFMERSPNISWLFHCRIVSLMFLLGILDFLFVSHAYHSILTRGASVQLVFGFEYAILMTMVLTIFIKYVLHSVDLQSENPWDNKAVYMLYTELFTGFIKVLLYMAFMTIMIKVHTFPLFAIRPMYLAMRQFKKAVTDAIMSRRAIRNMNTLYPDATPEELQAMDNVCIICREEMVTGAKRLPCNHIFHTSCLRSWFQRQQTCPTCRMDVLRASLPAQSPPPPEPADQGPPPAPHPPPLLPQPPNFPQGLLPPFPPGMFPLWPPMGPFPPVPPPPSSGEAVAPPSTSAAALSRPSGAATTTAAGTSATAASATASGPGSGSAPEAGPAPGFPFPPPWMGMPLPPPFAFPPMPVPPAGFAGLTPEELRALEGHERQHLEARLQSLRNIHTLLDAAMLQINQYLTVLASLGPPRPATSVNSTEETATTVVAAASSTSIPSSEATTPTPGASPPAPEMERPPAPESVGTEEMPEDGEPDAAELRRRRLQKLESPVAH

B1: S100A8 (protein, UniProt P05109 1-93)
chain: MLTELEKALNSIIDVYHKYSLIKGNFHAVYRDDLKKLLETECPQYIRKKGADVWFKELDINTDGAVNFQEFLILVIKMGVAAHKKSHEESHKE
binding: binds

— publication PMC5410327
